For 2 substances, binding results are on record in paper PMC9718832, “An NKX-COUP-TFII morphogenetic code directs mucosal endothelial addressin expression” (Nature Communications, 2022).

By UniProt entry, the sequences of proteins in these tests, tags left out. Where a name states a change or a piece, a line headed by the entry shows the natural chain unless it says otherwise. Chains listed by the source or under a name are the forms on record and can include a tag or linker.
UniProt P97334: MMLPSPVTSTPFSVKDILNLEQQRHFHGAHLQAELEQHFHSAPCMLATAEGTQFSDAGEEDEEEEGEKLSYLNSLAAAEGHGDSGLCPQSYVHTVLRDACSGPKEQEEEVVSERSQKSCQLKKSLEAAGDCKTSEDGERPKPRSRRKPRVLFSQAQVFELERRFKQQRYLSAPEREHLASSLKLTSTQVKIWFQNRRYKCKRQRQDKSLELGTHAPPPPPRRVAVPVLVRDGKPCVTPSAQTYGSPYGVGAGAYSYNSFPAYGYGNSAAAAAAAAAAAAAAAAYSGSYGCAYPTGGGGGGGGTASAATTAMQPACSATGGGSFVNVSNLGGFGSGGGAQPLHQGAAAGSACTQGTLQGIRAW
NKX2-3 lacking the TN domain (Nkx2-3∆2-24) (P97334, form named): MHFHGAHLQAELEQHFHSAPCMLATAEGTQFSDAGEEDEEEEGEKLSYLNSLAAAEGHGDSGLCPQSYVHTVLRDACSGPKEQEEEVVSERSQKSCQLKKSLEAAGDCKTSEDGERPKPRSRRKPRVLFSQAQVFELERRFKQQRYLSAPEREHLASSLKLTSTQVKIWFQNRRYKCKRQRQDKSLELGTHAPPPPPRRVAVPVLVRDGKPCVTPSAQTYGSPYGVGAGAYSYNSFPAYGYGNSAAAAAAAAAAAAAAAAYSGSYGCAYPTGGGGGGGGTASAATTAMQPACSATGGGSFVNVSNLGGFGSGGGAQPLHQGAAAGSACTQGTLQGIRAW

No constants are given. Whether binding was seen depends on the method and setting. For some assays here: In cells and extracts the contact can be indirect. Some binding calls cover weakened binding; strength is not graded here. For some assays here: Sequences can lack the tags named with a protein.

In assay [1] the target is T1, COUP-TFII (endogenous in DN-MAML bEnd.3 cells) (mouse (endogenous in bEnd.3)) (UniProt P43135).
T1 sequence: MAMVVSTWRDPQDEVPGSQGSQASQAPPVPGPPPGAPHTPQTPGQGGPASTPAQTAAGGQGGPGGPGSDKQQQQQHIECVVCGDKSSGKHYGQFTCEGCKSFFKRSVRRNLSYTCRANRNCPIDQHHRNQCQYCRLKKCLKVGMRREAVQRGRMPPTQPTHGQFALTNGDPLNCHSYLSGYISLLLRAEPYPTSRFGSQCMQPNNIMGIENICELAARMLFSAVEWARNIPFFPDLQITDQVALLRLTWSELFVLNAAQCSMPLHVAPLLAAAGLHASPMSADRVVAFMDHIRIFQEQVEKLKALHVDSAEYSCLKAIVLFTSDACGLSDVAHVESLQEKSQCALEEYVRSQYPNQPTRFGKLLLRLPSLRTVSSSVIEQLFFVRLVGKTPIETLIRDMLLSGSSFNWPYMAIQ
Kind of assay: proximity ligation; TNFα-treated DN-MAML bEnd.3 cells fixed in acetone at 4 °C; anti-NKX2-3 and anti-COUP-TFII antibodies; isotype-matched controls.

For assay [2], the target named is T2, COUP-TFII (recombinant, His- and T7-tagged) (mouse) (UniProt P43135).
T2 sequence: T1 sequence
Kind of assay: native gel or EMSA; recombinant proteins co-incubated with labelled Madcam1 CE probes (native CE, CE_ΔC_A, CE_ΔN_ΔC_A); 4 °C, 20% glycerol, 20 mM Tris pH 8.0, 10 mM KCl, 1 mM DTT, poly dI/C, BSA; 6% gel; supershift with anti-NKX2-3; complex seen on DNA; both purified.

For “NKX2-3 (endogenous in DN-MAML bEnd.3 cells) (from UniProt P97334 1-362)”, the binding entry in assay [1] is reported as “binds”. With “NKX2-3 lacking the TN domain (Nkx2-3∆2-24) (from UniProt P97334 1-362)”, the binding entry in assay [2] is “no binding”.
